{"sequences": {"note": "Protein sequences, listed by entry. Tags and fused reporters are not part of them. Residues count along the entry.", "UniProt P27487, 39-766 limits assumed": "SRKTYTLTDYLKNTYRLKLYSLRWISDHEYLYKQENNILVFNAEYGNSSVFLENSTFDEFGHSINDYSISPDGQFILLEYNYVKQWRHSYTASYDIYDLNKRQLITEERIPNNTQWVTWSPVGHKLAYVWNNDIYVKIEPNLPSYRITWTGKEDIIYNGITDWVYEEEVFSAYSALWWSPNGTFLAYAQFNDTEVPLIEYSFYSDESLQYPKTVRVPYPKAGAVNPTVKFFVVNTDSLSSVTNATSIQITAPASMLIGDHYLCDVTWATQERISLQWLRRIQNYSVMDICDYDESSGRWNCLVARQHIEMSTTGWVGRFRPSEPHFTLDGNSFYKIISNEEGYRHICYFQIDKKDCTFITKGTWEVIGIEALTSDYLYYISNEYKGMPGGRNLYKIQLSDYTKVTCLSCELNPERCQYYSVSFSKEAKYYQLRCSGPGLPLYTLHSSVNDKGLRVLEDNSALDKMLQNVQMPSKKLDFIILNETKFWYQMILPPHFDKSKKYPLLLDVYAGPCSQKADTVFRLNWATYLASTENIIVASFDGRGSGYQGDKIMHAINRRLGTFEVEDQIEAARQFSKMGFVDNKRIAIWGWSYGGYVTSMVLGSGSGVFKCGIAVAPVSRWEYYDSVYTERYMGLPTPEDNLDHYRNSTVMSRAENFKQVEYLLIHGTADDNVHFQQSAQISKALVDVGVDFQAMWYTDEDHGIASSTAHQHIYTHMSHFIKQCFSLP", "UniProt Q12884, 38-760 limits assumed": "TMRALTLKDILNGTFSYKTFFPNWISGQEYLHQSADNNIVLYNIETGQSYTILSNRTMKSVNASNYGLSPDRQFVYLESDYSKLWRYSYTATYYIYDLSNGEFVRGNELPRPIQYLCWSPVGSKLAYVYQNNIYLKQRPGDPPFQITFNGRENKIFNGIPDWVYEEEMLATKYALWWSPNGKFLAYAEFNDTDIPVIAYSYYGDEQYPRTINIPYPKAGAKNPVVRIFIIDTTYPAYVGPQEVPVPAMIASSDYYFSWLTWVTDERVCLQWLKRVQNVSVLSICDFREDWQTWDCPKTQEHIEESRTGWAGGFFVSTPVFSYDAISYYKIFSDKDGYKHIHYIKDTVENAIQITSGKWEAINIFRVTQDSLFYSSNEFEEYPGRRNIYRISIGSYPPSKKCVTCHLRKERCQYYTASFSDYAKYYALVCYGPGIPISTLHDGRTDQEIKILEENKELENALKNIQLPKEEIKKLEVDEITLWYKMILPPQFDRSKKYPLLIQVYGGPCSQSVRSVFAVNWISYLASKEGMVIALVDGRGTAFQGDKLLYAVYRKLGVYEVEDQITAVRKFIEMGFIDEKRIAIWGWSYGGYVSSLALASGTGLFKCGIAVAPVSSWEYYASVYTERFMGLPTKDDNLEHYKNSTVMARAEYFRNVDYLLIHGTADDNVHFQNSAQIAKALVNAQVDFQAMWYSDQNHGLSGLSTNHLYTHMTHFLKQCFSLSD"}, "source": "patent US7399869B2", "about": "“Fibroblast activation protein inhibitor compounds and methods” (Genentech, Inc., priority 2005, dated 2008)", "key": {"DPP-4 [1]": {"target": "T1, DPP-4 (Homo sapiens, UniProt P27487)", "assay": "Relative cleavage rates of coumarin (AMCC) dipeptide substrates by DPP-4"}, "DPP-4 [2]": {"target": "T1, DPP-4", "assay": "Hydrolysis of FRET-labelled peptide substrate by DPP-4", "settings": "FIG. 2"}, "FAP [3]": {"target": "T2, FAP (Homo sapiens, UniProt Q12884)", "assay": "Cleavage of FRET labelled peptide substrates by FAP", "settings": "FIG. 2"}, "FAP [4]": {"target": "T2, FAP", "assay": "Relative cleavage rates of coumarin (AMCC) dipeptide substrates by FAP"}, "[5]": {"settings": "P2-Pro-AMCC substrates, hydrolysis rates normalized to Gly-Pro-AMCC"}}, "note": "The structures given here were assigned with low confidence; some may be wrong."}
{"compound": "C[C@@H](O)[C@H](NC(=O)[C@H](CCCCNC(=O)c1ccc(/N=N/c2ccc(N(C)C)cc2)cc1)NC(=O)[C@@H](N)CCCNC(=N)N)C(=O)N[C@@H](CO)C(=O)NCC(=O)N1CCC[C@H]1C(=O)N[C@@H](CC(N)=O)C(=O)N[C@@H](CCC(N)=O)C(=O)N[C@@H](CCC(=O)O)C(=O)N[C@@H](CCC(N)=O)C(=O)N[C@@H](CCC(=O)NCCNc1cccc2c(S(=O)(=O)O)cccc12)C(=O)N[C@@H](CCCNC(=N)N)C(=O)O", "values": [{"measurement": "relative cleavage rate by DPP-4", "setting": "DPP-4 [1]; N-blocked Gly-Pro-AMCC substrates 6, normalized to N-unblocked Gly-Pro-AMCC, DPP-4 6.8 nM", "value": 100, "unit": "%"}, {"measurement": "Relative Hydrolysis rate by DPP-4", "setting": "DPP-4 [1]; [5]", "value": 100}, {"measurement": "hydrolysis of FRET-labelled peptide by DPP-4", "setting": "DPP-4 [2]", "value": "does not"}, {"measurement": "hydrolysis of FRET-labelled peptide by FAP", "setting": "FAP [3]", "value": "cleaves"}, {"measurement": "relative cleavage rate by FAP", "setting": "FAP [4]; N-blocked Gly-Pro-AMCC substrates 6, normalized to N-unblocked Gly-Pro-AMCC, FAP 37 nM", "value": 100, "unit": "%"}, {"measurement": "Relative Hydrolysis rate by FAP", "setting": "FAP [4]; [5]", "value": 100}]}
